# Test results reported in patent publication EP2060581A1 (Chemotherapeutisches Forschungsinstitut Georg-Speyer-Haus, dated 2009).
# Results are given in words; binding and its absence hold for the method and conditions named. Some entries that bind do so weakly or less than the wild type.
# Target: T1, ErbB2 receptor (UniProt P04626 23-1255)
# T1 construct: Whole endogenous receptor from cell extracts, immunoprecipitated with an ErbB2 antibody
# Assay: immunofluorescence microscopy of transduced cells
binder,measurement,value
"mt bTrx-All-7 (designed binder, Purified recombinant protein; Largely monomeric; also called All-7 aptamer in mutated bTrx (mt); All-7 in the mutated scaffold; not shown: Flag-tag, one or two His-tags and a 9R protein transduction domain) MSDKIIHLTDDSFDTDVLKADGAILVDFWAEWSGPPLNFYRHGFLPNAVMASMLEVGPWFELLGPCGLAGHPLSSLRIGPSKMIAPILDEIADEYQGKLTVAKLNIDQNPGTAPKYGIRGIPTLLLFKNGEVAATKVGALSKGQLKEFLDANLA",binding,binds
